# PubChem BioAssay AID1259308, NCATS, 2017
# Assay: 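Candidate targets for better recombinant protein yield in mammalian cells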 (primary screen)
# System: human HEK293 embryonic kidney cells stably expressing firefly luciferase (HEK-CMV-Luc2-Hygro)
# Knock-down reagent: single siRNA against human genes, 0.8 pmol siRNA per well
# Timing: 72 h
# Measurement: 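Luciferase light (ONE-Glo) measured on one replicate plate set and viability (CellTiter-Glo) on the other, scaled to a negative control siRNA, with robust z-scores and luciferase per cell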
# Direction: total luciferase, z-score and total luciferase, % of control: higher = more reporter protein produced; luciferase per cell, z-score: higher = more reporter output per viable cell
# Call rule: 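An siRNA counts as active if its total luciferase robust z-score exceeds 3; genes with two or more such siRNAs out of three were retested with fresh siRNAs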
# Meaning of the calls: active = raised luciferase; inactive = no rise
# Shown is one part, drawn at random, of about 59,000 reagents. Over the whole deposit, about 1,510 (2.6%) got an active call. 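Calls use total luciferase alone and ignore viability, so some active siRNAs may act by altering cell number.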 Entries without a mark were called inactive. Reagents against one gene are numbered here. Not all columns of the deposit are shown.
target gene,siRNA no.,"total luciferase, z-score","total luciferase, % of control","luciferase per cell, z-score"
WDR77 (GeneID 79084),1,1.03,102,0.549
WDR77 (GeneID 79084),2,0.0437,82.8,-0.296
WDR77 (GeneID 79084),3,-2.37,34.7,-2.42
WFIKKN2 (GeneID 124857),1,-2.6,30.2,-1.39
WFIKKN2 (GeneID 124857),2,0.707,96,1.12
WFIKKN2 (GeneID 124857),3,-0.835,65.3,-0.533
EAPP (GeneID 55837),1,-0.296,76,-0.798
EAPP (GeneID 55837),2,0.238,86.6,-0.0155
EAPP (GeneID 55837),3,-0.733,67.3,-0.447
CLCN1 (GeneID 1180),1,-0.987,62.3,-0.932
CLCN1 (GeneID 1180),2,-0.0775,80.3,-0.736
CLCN1 (GeneID 1180),3,0.162,85.1,-0.402
SALL1 (GeneID 6299),1,-0.0249,81.4,0.109
SALL1 (GeneID 6299),2,-0.361,74.7,-0.282
SALL1 (GeneID 6299),3,2.69,135,2.89
EFHC2 (GeneID 80258),1,-1.24,57.3,-0.62
EFHC2 (GeneID 80258),2,-0.637,69.2,-0.102
EFHC2 (GeneID 80258),3,0.217,86.2,0.0621
IQCM (GeneID 285423),1,2.61,134,2.06
IQCM (GeneID 285423),2,1.36,109,0.662
IQCM (GeneID 285423),3,-1.58,50.4,-1.19
PURA (GeneID 5813),1,0.142,84.7,-0.3
PURA (GeneID 5813),2,0.0472,82.8,0.0595
PURA (GeneID 5813),3,0.59,93.6,2.26
